The target in this assay is T1, β-catenin (Hydra) (Hydra vulgaris Ind-Pune (endogenous in polyps)) (UniProt Q25100).
T1 sequence: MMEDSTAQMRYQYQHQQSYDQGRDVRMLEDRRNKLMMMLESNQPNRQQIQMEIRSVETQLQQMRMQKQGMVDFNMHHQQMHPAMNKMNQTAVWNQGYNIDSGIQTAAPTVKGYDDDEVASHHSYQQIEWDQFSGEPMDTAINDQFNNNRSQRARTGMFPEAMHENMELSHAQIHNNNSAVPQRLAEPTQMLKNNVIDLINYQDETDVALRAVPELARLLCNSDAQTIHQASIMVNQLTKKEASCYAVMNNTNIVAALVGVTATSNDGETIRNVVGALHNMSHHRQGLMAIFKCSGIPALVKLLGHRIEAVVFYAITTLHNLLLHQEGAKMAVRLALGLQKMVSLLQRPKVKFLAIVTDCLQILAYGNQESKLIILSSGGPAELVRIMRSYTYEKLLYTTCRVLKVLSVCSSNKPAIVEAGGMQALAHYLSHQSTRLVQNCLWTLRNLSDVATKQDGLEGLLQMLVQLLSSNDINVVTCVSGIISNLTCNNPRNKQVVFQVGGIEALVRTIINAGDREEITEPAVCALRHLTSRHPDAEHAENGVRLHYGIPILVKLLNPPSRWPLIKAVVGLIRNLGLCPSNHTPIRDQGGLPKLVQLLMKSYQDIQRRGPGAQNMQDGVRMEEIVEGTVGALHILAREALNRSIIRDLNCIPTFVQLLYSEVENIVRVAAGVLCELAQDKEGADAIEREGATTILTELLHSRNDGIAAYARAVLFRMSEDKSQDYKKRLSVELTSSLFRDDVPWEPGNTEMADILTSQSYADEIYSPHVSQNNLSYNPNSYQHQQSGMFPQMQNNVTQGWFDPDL
Description: co-IP; 700 μg Hydra polyp lysate in RIPA buffer; 5 μg α-active-β-catenin antibody overnight at 4°C, Dynabeads M-280 sheep anti-mouse IgG, three RIPA washes; Western blot with α-SETD8 antibody; normal mouse IgG as control.

No constants are given. Whether binding was seen depends on the method and setting. Binding seen in cells or lysates may run through a third protein. Some binding calls cover weakened binding; strength is not graded here.

B1: Hydra SETD8 protein (enzyme, UniProt T2M4F1 1-269)
chain: MENHQENKLLVTKSIRSCERLEEKKESFKVDSPVKGVTNLKVKSIIKNTHQLKSNKDINQPKSIKNTTKNVQKKSSNEKVRKVCDMENRPEKVQTTITQHFQVRRSERKVKTMAKNDAKLNLEKIILSGIEDGLEVRLIEEKGRGVFTKQSLKKGDLVCEYAGDLISLKEALQREKDYEKNPELGCYMYFFDYKDKKYCVDATKETGRLGRLLNHSKTNSNVCTKLFPIGNTPHLILVAQKDIACDQELLYDYGDRSKRSIESHPWLKL
In the case of B1, the binding result is listed as “binds”.

These data come from article PMC10031314.
